Laboratory results reported in PubChem BioAssay AID1458 (National Center for Advancing Translational Sciences (NCATS), 2008).
The campaign covered roughly 210,000 compounds. About 5,900 (2.8%) were called active. About 5% were inconclusive and are not listed. Calls follow the shape of the dose curve; as a rule, active = well fitted activation curve with a large enough effect; inconclusive = small, poorly fitted or top-dose-only effect; inactive = no such curve, though single readings can be large or run the other way. Only a part is listed here, and it is no random draw. Entries without a call were filed so in the source.

Test: qHTS Assay for Enhancers of SMN2 Splice Variant Expression; also: nearly all actives have a fitted effect of over 55% in size; as to activity change, positive = activation: % of control where 0% means no effect
Conditions: HEK293 SMN2-luciferase splicing reporter, luminescence, 30-36 h; activity change, positive = activation: at 46.1 µM (top of the series) unless noted
Summary of the method: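 HEK293 cells carry an SMN2 […]–luciferase reporter in which exon 7 inclusion puts luciferase in frame. Cells were plated 10-12 h before compound addition, then incubated 30-36 h at 37C. ONE-Glo luminescence was read; sodium butyrate at 4.5 mM final served as control.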
Potency is read from the fitted curve at half-maximal effect.

Row | Compound | activity change, positive = activation | Potency
1 | Cc1cnc(NC(=O)c2cccc(S(=O)(=O)N3CC(C)OC(C)C3)c2)s1 (stereo unspecified) | -69.9% | –
2 | CC(C)c1ccc(NC(=O)CSc2ncccc2C(=O)Oc2cccc([N+](=O)[O-])c2)cc1 | – | active: 10 µM
3 | Cc1cccc(Nc2nnc(-c3ccc(N4CCOCC4)c([N+](=O)[O-])c3)c3ccccc23)c1 | inactive: -67.2% | –
4 | CC(=O)c1ccc(NC(=O)c2cnn3ccccc23)cc1 | inactive: -36.7% | –
5 | [O-]/[N+](=C\c1ccncc1)c1ccc(Br)cc1 | 148% | –
6 | Cc1ccc(/C=N/NC(=O)CSc2nc3ccccc3o2)cc1 | 124% | –
7 | Cc1cc(C)n(-c2ccc3cccc(NS(C)(=O)=O)c3n2)n1 | -85.6% | –
8 | Cn1c(SCC(=O)N(C2CCCCC2)C2CCCCC2)nnc1-c1cccs1 | 40.4% | –
9 | CCOC(=O)c1ccccc1NC(=O)CC1SC(=NC)N(C)C1=O (stereo unspecified) | 22.6% | –
10 | Cc1ccc(S(=O)(=O)N2CCN(C(=O)CN3CCOCC3)C2)cc1 | 20.9% | –
11 | CN1C(=O)CC(Sc2ncccc2C(=O)O)C1=O (stereo unspecified) | 9.59% | –
12 | Nc1ccc(Sc2nnnn2-c2ccccc2)c(Cl)c1 | 32.3% | –
13 | c1ccc(CNc2ncnc3c2cnn3Cc2ccccc2)cc1 | – | active: 11.2 µM
14 | COc1ccc(NC(=O)COC(C)=O)cc1OC | inactive: 24% | –
15 | CCCC(=O)Nc1ccc(Cl)c(NC(=O)c2ccco2)c1 | 51.1% | –
16 | Cc1ccc(/C=N/Nc2nnc(Cl)c3ccccc23)cc1 | – | active: 4.47 µM
17 | Cc1cc(C(=O)COC(=O)c2ccccc2O)c(C)n1Cc1cccs1 | -80.5% | –
18 | Cc1cc(-c2ccc(Cl)cc2)n2nc(N)nc2n1 | 31.2% | –
19 | O=C1C=C(NCCO)C(=O)c2cnccc21 | inactive: -115% | –

Row | Compound | activity change, positive = activation | Potency
20 | Cc1ccc(Cn2c(/C=C/c3ccco3)nc3ccccc32)cc1 | 133% | –
21 | COc1ccc2cc3c(N)nn(C(=O)c4cccc([N+](=O)[O-])c4)c3nc2c1 | inactive: -34.9% | –
22 | O=c1cc(/C=C/c2ccccc2)oc2ccccc12 | – | active: 11.2 µM
23 | CN(C)CCN(Cc1ccco1)C(=O)c1cc2c(Cl)nc3ccccc3c2s1 | -55.3% | –
24 | COc1ccc(NS(=O)(=O)c2cc(NC(=O)CNC(=O)c3cccc(OC)c3)ccc2C)cc1 | inactive: 20.6% | –
25 | O=C(OCC(=O)N1CCCC1)c1ccccc1OCc1ccccc1 | – | active: 12.6 µM
26 | COc1cccc2[nH]c(-c3ccccn3)nc12 | – | active: 3.98 µM
27 | O=C(Nc1nc2ccc(F)cc2s1)c1ccccn1 | inactive: -54.1% | –
28 | O=c1c(C=NCCCn2ccnc2)c(-c2ccccc2)[nH]n1-c1nc2ccccc2s1 | 32% | –
29 | Cc1ccccc1C(=O)Nc1ccc(N2CCCCCC2)cc1 | – | active: 12.6 µM
30 | Cc1cc(C(C)(C)C)cc(S(=O)(=O)Nc2ccc(O)c(C(=O)O)c2)c1C | 34.1% | –
31 | O=C(O)c1cccnc1Br | -49.6% | –
32 | CCN(CC)C(=O)c1oc2ccc(S(=O)(=O)N3CCCCCC3)cc2c1C | -61.5% | –
33 | Cc1ccc(-n2c(CCC(=O)O)ccc2-c2cccs2)cc1Cl | 61.8% | –
34 | Clc1ncccc1-c1nc2ccccc2s1 | 103% | –
35 | COc1c2c(cc3occ(-c4ccc5c(c4)OCO5)c(=O)c13)OC(C)(C)C=C2 | – | active: 6.31 µM
36 | O=C(Cn1nc(C(F)F)cc1C(F)F)NNC(=S)Nc1ccc(Cl)cc1 | -31.4% | –
37 | CCOC(=O)C1CCCCN1Cc1cccc(OC)c1OC (stereo unspecified) | 27% | –
38 | COc1ccc(NC(=O)c2cc(C)on2)cc1 | – | active: 11.2 µM

Sorted by number of heavy atoms (ascending): five of the compounds above
Row | Compound | activity change, positive = activation | Potency
26 | COc1cccc2[nH]c(-c3ccccn3)nc12 | – | active: 3.98 µM
27 | O=C(Nc1nc2ccc(F)cc2s1)c1ccccn1 | inactive: -54.1% | –
21 | COc1ccc2cc3c(N)nn(C(=O)c4cccc([N+](=O)[O-])c4)c3nc2c1 | inactive: -34.9% | –
35 | COc1c2c(cc3occ(-c4ccc5c(c4)OCO5)c(=O)c13)OC(C)(C)C=C2 | – | active: 6.31 µM
28 | O=c1c(C=NCCCn2ccnc2)c(-c2ccccc2)[nH]n1-c1nc2ccccc2s1 | 32% | –

Further compounds.

Row | Compound | activity change, positive = activation | Potency
39 | COc1cc(C)c(S(=O)(=O)N2CCOCC2)cc1C(C)C | 11.7% | –
40 | Cc1ccc(NC(=O)/C(C#N)=C(\N)C(Cl)(Cl)Cl)nc1 | 273% | –
41 | CSc1nc2nc3c(cn2n1)C(=O)CC(c1ccccc1)C3 (stereo unspecified) | 35.9% | –
42 | O=C(O)CNC(=O)c1nc(-c2ccccc2)n(-c2ccccc2)n1 | 52.8% | –
43 | CN1c2ccccc2C(O)=C(C(=O)Nc2ccccc2)S1(=O)=O | 33% | –
44 | O=C1Nc2ccccc2N(O)N1c1cc(-c2cccc(Cl)c2)no1 | 40.2% | –
45 | CCN(CC)C(=O)c1ccc2c3c(cccc13)C(=O)N(CCc1ccc(OC)c(OC)c1)C2=O | -57.9% | –
46 | N/C(=N\OC(=O)/C=C/c1ccc(Br)cc1)c1ccccn1 | – | active: 17.8 µM
47 | N#C/C(=C\c1cn[nH]c1-c1ccc(Cl)cc1)C(=O)NCc1ccccc1 | 41% | –
48 | COc1cc(C)cc(OC)c1/C=C\C(=O)O | inactive: -49.9% [at 9.22 µM] | –
49 | COc1ccccc1N1CCN(C(=O)CN(Cc2ccccc2)S(C)(=O)=O)CC1 | -35.7% | –
50 | CCOc1ccc(C2C(C(=O)c3ccco3)=C(O)C(=O)N2Cc2cccnc2)cc1OC (stereo unspecified) | 41.4% | –
51 | CN(c1ccccc1)S(=O)(=O)c1ccc(Cl)c(C(=O)Nc2ccc(-c3nc4ccccc4[nH]3)cc2)c1 | inactive: -42.6% | –
52 | CC(C)c1ccc(C(=O)NCc2ccc(Cl)cc2)cc1 | – | active: 15.8 µM
53 | COCCSc1nnc(NC(=O)C(C)(C)C)s1 | 30.9% | –
54 | CCOC(=O)Cn1nc(C)c2ccccc2c1=O | 32.2% | –
55 | CCOC(=O)c1c(C=O)c(C)n(Cc2ccccc2Cl)c1C | 24.2% | –
56 | O=C(Nc1nnc(C2=COCCO2)o1)c1ccc(S(=O)(=O)N2CCCC2)cc1 | -32.7% | –
